In patent publication US20230365651A1:

Molecular target: HLA-B*07:02 (human)
Assay: UV peptide exchange, anti-b2m ELISA

binding, binds:
FPFNPLDF [FPFNPLDF (SEQ ID NO: 386)]
APLKLSRTPA [… (SEQ ID NO: 387)]
SPAPLKLSRTPA [… (SEQ ID NO: 388)]
SPGAQRTFFQL [… (SEQ ID NO: 389)]
NPDLRRNVL [… (SEQ ID NO: 390)]
APSTPRITTF [… (SEQ ID NO: 391)]
KPIESTLVA [… (SEQ ID NO: 392)]

Molecular target: HLA-B*44:02 (human)
Assay: UV peptide exchange, anti-b2m ELISA

binding, binds:
AEFLLRIFL [… (SEQ ID NO: 52)]
MEHPGKLLF [… (SEQ ID NO: 53)]
AEITITTQTGY [… (SEQ ID NO: 54)]
HETETRTTW [… (SEQ ID NO: 55)]
SEPDTTASW [… (SEQ ID NO: 56)]
QESDLRLFL [… (SEQ ID NO: 57)]
GEMEQKQL [GEMEQKQL (SEQ ID NO: 58)]
SENVTMKVV [… (SEQ ID NO: 59)]
AEAQVGDERDY [… (SEQ ID NO: 173)]
AEATARLNVF [… (SEQ ID NO: 174)]
AEIEPKADG [… (SEQ ID NO: 175)]
AEIEPKADGSW [… (SEQ ID NO: 176)]
TEVGTMNLF [… (SEQ ID NO: 177)]
NELFRDGVNW [… (SEQ ID NO: 178)]
REAGDEFEL [… (SEQ ID NO: 179)]
REAGDEFELRY [… (SEQ ID NO: 180)]
GEGPKTSW [GEGPKTSW (SEQ ID NO: 181)]
KEATEAQSL [… (SEQ ID NO: 182)]
YEKGIMQKV [… (SEQ ID NO: 183)]
AELEALTDLW [… (SEQ ID NO: 184)]
AERQPGAASL [… (SEQ ID NO: 185)]
REGPEEPGL [… (SEQ ID NO: 186)]
GEAQTRIAW [… (SEQ ID NO: 187)]

No constants are given. Whether binding was seen depends on the method and setting. Binding can be weak; no strength is given.
